Numbering of substitutions follows the chain as printed. Results are given in words; binding and its absence hold for the method and conditions named. Binding seen in cells or lysates may run through a third protein. Some binding calls cover weakened binding; strength is not graded here. Tags and fused reporters may be left off the sequences shown. Blank lines part the entries; values can stand above or below the molecule they belong to.
Legend:
Assay in all cases: pull-down; recombinant GST and GST-fusion proteins used for affinity capture from soluble S. pombe myc-rad3 extracts; Rad3 detected with α-Myc, Cdc13 with α-Cdc13; only the target purified
[1] = biological target: T1, Rad4[288–648] Y599R fused to GST (AAD-mutated) (S. pombe) (UniProt P32372)
T1 sequence: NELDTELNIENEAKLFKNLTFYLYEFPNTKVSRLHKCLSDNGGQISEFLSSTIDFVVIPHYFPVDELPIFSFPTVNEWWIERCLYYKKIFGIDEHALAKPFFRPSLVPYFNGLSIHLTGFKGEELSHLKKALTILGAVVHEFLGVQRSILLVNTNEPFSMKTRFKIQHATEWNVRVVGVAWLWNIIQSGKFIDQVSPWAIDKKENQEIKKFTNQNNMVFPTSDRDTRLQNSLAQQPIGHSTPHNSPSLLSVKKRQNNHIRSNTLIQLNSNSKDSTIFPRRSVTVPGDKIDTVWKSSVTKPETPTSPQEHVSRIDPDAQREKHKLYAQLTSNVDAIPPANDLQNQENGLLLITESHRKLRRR

Chains of the proteins cited; added tags and fusions are not shown.
UniProt Q02099: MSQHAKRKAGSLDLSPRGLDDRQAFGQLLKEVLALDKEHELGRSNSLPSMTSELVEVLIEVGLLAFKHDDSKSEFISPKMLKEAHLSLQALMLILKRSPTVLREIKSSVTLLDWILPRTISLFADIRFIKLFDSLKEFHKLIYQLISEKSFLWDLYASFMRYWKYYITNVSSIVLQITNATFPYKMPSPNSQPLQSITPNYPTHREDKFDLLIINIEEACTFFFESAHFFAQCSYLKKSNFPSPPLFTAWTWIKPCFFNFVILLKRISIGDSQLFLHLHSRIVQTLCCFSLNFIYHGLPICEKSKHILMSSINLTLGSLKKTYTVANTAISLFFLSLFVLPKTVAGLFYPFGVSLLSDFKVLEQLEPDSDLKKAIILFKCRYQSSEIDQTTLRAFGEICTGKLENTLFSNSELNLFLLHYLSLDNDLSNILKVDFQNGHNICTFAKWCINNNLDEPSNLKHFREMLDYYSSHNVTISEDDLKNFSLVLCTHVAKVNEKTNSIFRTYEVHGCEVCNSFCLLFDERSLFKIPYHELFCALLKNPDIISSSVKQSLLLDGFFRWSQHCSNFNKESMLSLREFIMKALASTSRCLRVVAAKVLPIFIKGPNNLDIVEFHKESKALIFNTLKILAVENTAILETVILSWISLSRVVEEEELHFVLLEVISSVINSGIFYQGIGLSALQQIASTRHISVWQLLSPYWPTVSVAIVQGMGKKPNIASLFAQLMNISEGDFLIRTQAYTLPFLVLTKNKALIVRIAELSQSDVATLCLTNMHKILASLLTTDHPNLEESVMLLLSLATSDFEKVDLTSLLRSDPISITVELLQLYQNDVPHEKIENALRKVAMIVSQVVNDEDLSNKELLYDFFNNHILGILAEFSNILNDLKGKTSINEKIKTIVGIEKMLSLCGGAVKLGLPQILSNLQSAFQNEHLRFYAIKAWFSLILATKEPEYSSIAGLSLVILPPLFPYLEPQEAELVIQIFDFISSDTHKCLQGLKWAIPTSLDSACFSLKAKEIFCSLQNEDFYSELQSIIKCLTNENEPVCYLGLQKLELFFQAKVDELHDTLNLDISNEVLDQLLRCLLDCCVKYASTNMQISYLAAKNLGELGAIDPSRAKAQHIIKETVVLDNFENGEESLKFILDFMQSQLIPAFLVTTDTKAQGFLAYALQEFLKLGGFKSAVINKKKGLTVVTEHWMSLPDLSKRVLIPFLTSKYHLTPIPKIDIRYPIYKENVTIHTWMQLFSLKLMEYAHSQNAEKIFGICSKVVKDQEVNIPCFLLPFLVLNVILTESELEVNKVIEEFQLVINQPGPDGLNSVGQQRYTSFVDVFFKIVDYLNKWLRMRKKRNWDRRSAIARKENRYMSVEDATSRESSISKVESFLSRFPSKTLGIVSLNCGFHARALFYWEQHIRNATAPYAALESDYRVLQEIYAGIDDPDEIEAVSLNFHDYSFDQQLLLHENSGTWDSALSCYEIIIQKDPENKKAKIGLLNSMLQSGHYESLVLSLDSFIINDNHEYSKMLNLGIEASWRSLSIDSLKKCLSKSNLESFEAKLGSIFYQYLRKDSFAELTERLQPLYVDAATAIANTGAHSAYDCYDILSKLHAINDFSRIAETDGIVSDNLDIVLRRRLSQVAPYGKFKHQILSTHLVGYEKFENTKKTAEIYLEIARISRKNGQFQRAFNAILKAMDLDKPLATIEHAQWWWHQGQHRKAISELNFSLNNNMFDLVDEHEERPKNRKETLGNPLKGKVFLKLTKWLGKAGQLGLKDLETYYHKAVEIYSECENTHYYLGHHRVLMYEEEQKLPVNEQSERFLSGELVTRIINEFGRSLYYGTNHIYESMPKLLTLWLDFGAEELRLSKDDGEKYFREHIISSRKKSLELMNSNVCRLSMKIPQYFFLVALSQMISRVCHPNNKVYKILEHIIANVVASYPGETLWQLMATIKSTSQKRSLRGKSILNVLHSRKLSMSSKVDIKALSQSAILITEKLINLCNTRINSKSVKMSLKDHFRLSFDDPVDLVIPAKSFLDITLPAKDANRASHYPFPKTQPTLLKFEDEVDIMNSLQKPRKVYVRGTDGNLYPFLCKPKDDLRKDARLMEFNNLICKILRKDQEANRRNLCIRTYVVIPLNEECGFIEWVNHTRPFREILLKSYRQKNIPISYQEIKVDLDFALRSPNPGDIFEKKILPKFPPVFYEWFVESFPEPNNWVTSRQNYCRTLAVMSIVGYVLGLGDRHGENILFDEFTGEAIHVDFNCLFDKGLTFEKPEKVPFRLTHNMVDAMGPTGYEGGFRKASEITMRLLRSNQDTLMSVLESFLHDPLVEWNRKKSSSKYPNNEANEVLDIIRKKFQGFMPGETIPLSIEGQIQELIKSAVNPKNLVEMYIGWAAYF

[2] = biological target: T2, Rad4[288–648] fused to GST (wild type; includes BRCT (3+4) and the unstructured C-terminal tail) (S. pombe) (UniProt P32372)
T2 sequence: T1 sequence with R312Y

[3] = biological target: T3, Rad4[288–648] S641A (CDK phosphorylation site mutant) fused to GST (S. pombe) (UniProt P32372)
T3 sequence: T1 sequence with R312Y, S354A

[4] = biological target: T4, Rad4[288–648] with deletion of residues 643–645 (putative cyclin binding motif, RxL) fused to GST (S. pombe) (UniProt P32372)
T4 sequence: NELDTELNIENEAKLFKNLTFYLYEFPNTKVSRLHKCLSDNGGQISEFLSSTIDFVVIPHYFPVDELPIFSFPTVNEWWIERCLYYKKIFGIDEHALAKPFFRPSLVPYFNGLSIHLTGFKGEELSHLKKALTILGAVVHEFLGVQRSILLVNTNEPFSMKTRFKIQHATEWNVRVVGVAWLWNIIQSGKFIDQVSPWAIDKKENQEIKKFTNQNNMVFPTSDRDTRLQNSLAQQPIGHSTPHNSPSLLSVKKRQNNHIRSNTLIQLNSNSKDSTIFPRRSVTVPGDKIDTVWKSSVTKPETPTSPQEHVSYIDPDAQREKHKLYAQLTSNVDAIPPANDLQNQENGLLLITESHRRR

binding [1]: binds
binding [2]: binds
Molecule: Rad3^ATR-Myc (from 3myc-rad3 S. pombe cells) (from UniProt Q02099 1-2386)

binding [3]: binds
binding [1]: binds
binding [2]: binds
binding [4]: binds
B1: Cdc13^CyclinB (protein, UniProt P10815 1-482)
chain: MTTRRLTRQHLLANTLGNNDENHPSNHIARAKSSLHSSENSLVNGKKATVSSTNVPKKRHALDDVSNFHNKEGVPLASKNTNVRHTTASVSTRRALEEKSIIPATDDEPASKKRRQPSVFNSSVPSLPQHLSTKSHSVSTHGVDAFHKDQATIPKKLKKDVDERVVSKDIPKLHRDSVESPESQDWDDLDAEDWADPLMVSEYVVDIFEYLNELEIETMPSPTYMDRQKELAWKMRGILTDWLIEVHSRFRLLPETLFLAVNIIDRFLSLRVCSLNKLQLVGIAALFIASKYEEVMCPSVQNFVYMADGGYDEEEILQAERYILRVLEFNLAYPNPMNFLRRISKADFYDIQTRTVAKYLVEIGLLDHKLLPYPPSQQCAAAMYLAREMLGRGPWNRNLVHYSGYEEYQLISVVKKMINYLQKPVQHEAFFKKYASKKFMKASLFVRDWIKKNSIPLGDDADEDYTFHKQKRIQHDMKDEEW
